Values quoted from earlier work in patent US20080194636A1, “Enzyme Inhibitors and Uses Thereof” (Howard Florey Institute Of Experimental Physiology And …, priority 2004, published 2008).
Some of these results come from one statement about several compounds together.

By UniProt entry, the sequences of proteins in these tests, tags left out. Where a name states a change or a piece, a line headed by the entry shows the natural chain unless it says otherwise.
UniProt P68871: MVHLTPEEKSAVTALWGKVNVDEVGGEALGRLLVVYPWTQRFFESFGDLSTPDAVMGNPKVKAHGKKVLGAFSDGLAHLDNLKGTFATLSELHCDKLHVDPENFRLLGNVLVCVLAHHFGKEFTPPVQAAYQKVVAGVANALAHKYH

Test system: spatial learning
Conditions: rats, 100 pmoles or 1 nmole; controls (artificial cerebrospinal fluid) took 7 days; cited from earlier work

LVV-H7: structurally distinct peptide AT4 ligand, LVV-hemorphin 7 (LVVYPWTQRF; LVV-hemorphin-7; UniProt P68871 33-42, looked up)
time taken to achieve learner criteria: 3 to 4 days
